PubChem BioAssay AID1508597 – Cure First – 2020
Shown is an unselected part of about 2,100 reagents. 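Calls flag viability under 80% in either arm, not effects specific to rucaparib; the reference for percent is not stated.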 A number with no mark means an inactive call. A reagent listed more than once was tested more than once; the source does not tell the runs apart. Not given: the 100% reference.

Screen: 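Genes whose silencing sensitises or protects ovarian cancer cells against rucaparib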 (primary screen)
System: human ovarian carcinoma lines grown from tumours: OCI-P5x (papillary serous) and OCI-C5x (clear cell)
Knock-down reagent: siRNA pool against human genes, 1.25 pmol siRNA per well
Duration: 72 h or 96 h, depending on the cell culture
Conditions: rucaparib 20 µM (about IC30) or vehicle, present until read-out
Measured: 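Luminescent ATP-based viability assay read 72 or 96 h after transfection, depending on culture, given as normalised percent viability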
Reading the numbers: viability, normalised: higher = more viable cells remaining
Active means: 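Active when normalised viability falls below 80 percent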
Meaning of the calls: active = viability under 80%; inactive = viability 80% or more

Gene	rucaparib or vehicle	cell line	technical replicate	viability, normalised (%)
CAMK1G (calcium/calmodulin dependent protein kinase IG)	Rucaparib	OCI-C5x (clear cell)	1	54.5 (active)
CAMK1G (calcium/calmodulin dependent protein kinase IG)	Rucaparib	OCI-C5x (clear cell)	1	75.7 (active)
CAMK1G (calcium/calmodulin dependent protein kinase IG)	Rucaparib	OCI-C5x (clear cell)	2	52.7 (active)
CAMK1G (calcium/calmodulin dependent protein kinase IG)	Rucaparib	OCI-C5x (clear cell)	2	83.1
CAMK1G (calcium/calmodulin dependent protein kinase IG)	Rucaparib	OCI-C5x (clear cell)	3	45.8 (active)
CAMK1G (calcium/calmodulin dependent protein kinase IG)	Rucaparib	OCI-C5x (clear cell)	3	64 (active)
CAMK1G (calcium/calmodulin dependent protein kinase IG)	Rucaparib	OCI-P5x (serous)	1	76.5 (active)
CAMK1G (calcium/calmodulin dependent protein kinase IG)	Rucaparib	OCI-P5x (serous)	1	87.8
CAMK1G (calcium/calmodulin dependent protein kinase IG)	Rucaparib	OCI-P5x (serous)	2	93.1
CAMK1G (calcium/calmodulin dependent protein kinase IG)	Rucaparib	OCI-P5x (serous)	2	73.6 (active)
CAMK1G (calcium/calmodulin dependent protein kinase IG)	Rucaparib	OCI-P5x (serous)	3	74.4 (active)
CAMK1G (calcium/calmodulin dependent protein kinase IG)	Rucaparib	OCI-P5x (serous)	3	87
CAMK1G (calcium/calmodulin dependent protein kinase IG)	Vehicle	OCI-C5x (clear cell)	1	52.1 (active)
CAMK1G (calcium/calmodulin dependent protein kinase IG)	Vehicle	OCI-C5x (clear cell)	1	50 (active)
CAMK1G (calcium/calmodulin dependent protein kinase IG)	Vehicle	OCI-C5x (clear cell)	2	60.2 (active)
CAMK1G (calcium/calmodulin dependent protein kinase IG)	Vehicle	OCI-C5x (clear cell)	2	64.8 (active)
CAMK1G (calcium/calmodulin dependent protein kinase IG)	Vehicle	OCI-C5x (clear cell)	3	54.2 (active)
CAMK1G (calcium/calmodulin dependent protein kinase IG)	Vehicle	OCI-C5x (clear cell)	3	48 (active)
CAMK1G (calcium/calmodulin dependent protein kinase IG)	Vehicle	OCI-P5x (serous)	1	77.3 (active)
CAMK1G (calcium/calmodulin dependent protein kinase IG)	Vehicle	OCI-P5x (serous)	1	77.4 (active)
CAMK1G (calcium/calmodulin dependent protein kinase IG)	Vehicle	OCI-P5x (serous)	2	77.4 (active)
CAMK1G (calcium/calmodulin dependent protein kinase IG)	Vehicle	OCI-P5x (serous)	2	68.2 (active)
CAMK1G (calcium/calmodulin dependent protein kinase IG)	Vehicle	OCI-P5x (serous)	3	71 (active)
CAMK1G (calcium/calmodulin dependent protein kinase IG)	Vehicle	OCI-P5x (serous)	3	94.1
DCLK3 (doublecortin like kinase 3)	Rucaparib	OCI-C5x (clear cell)	1	72.4 (active)
DCLK3 (doublecortin like kinase 3)	Rucaparib	OCI-C5x (clear cell)	2	63.4 (active)
DCLK3 (doublecortin like kinase 3)	Rucaparib	OCI-C5x (clear cell)	3	48.5 (active)
DCLK3 (doublecortin like kinase 3)	Rucaparib	OCI-P5x (serous)	1	116
DCLK3 (doublecortin like kinase 3)	Rucaparib	OCI-P5x (serous)	2	112
DCLK3 (doublecortin like kinase 3)	Rucaparib	OCI-P5x (serous)	3	92
DCLK3 (doublecortin like kinase 3)	Vehicle	OCI-C5x (clear cell)	1	59.3 (active)
DCLK3 (doublecortin like kinase 3)	Vehicle	OCI-C5x (clear cell)	2	61.3 (active)
DCLK3 (doublecortin like kinase 3)	Vehicle	OCI-C5x (clear cell)	3	47.6 (active)
DCLK3 (doublecortin like kinase 3)	Vehicle	OCI-P5x (serous)	1	94.8
DCLK3 (doublecortin like kinase 3)	Vehicle	OCI-P5x (serous)	2	90.7
DCLK3 (doublecortin like kinase 3)	Vehicle	OCI-P5x (serous)	3	87.2
PTP4A2 (protein tyrosine phosphatase 4A2)	Rucaparib	OCI-C5x (clear cell)	1	71.3 (active)
PTP4A2 (protein tyrosine phosphatase 4A2)	Rucaparib	OCI-C5x (clear cell)	2	62 (active)
PTP4A2 (protein tyrosine phosphatase 4A2)	Rucaparib	OCI-C5x (clear cell)	3	63.5 (active)
PTP4A2 (protein tyrosine phosphatase 4A2)	Rucaparib	OCI-P5x (serous)	1	76 (active)
PTP4A2 (protein tyrosine phosphatase 4A2)	Rucaparib	OCI-P5x (serous)	2	78.9 (active)
PTP4A2 (protein tyrosine phosphatase 4A2)	Rucaparib	OCI-P5x (serous)	3	86.4
PTP4A2 (protein tyrosine phosphatase 4A2)	Vehicle	OCI-C5x (clear cell)	1	73.3 (active)
PTP4A2 (protein tyrosine phosphatase 4A2)	Vehicle	OCI-C5x (clear cell)	2	73.5 (active)
PTP4A2 (protein tyrosine phosphatase 4A2)	Vehicle	OCI-C5x (clear cell)	3	63.9 (active)
PTP4A2 (protein tyrosine phosphatase 4A2)	Vehicle	OCI-P5x (serous)	1	65.9 (active)
PTP4A2 (protein tyrosine phosphatase 4A2)	Vehicle	OCI-P5x (serous)	2	81
PTP4A2 (protein tyrosine phosphatase 4A2)	Vehicle	OCI-P5x (serous)	3	91.4
LMTK3 (lemur tail kinase 3)	Rucaparib	OCI-C5x (clear cell)	1	50.4 (active)
LMTK3 (lemur tail kinase 3)	Rucaparib	OCI-C5x (clear cell)	2	61.5 (active)
LMTK3 (lemur tail kinase 3)	Rucaparib	OCI-C5x (clear cell)	3	58.9 (active)
LMTK3 (lemur tail kinase 3)	Rucaparib	OCI-P5x (serous)	1	80 (active)
LMTK3 (lemur tail kinase 3)	Rucaparib	OCI-P5x (serous)	2	84
LMTK3 (lemur tail kinase 3)	Rucaparib	OCI-P5x (serous)	3	76.1 (active)
LMTK3 (lemur tail kinase 3)	Vehicle	OCI-C5x (clear cell)	1	69.1 (active)
LMTK3 (lemur tail kinase 3)	Vehicle	OCI-C5x (clear cell)	2	80.2
LMTK3 (lemur tail kinase 3)	Vehicle	OCI-C5x (clear cell)	3	72.3 (active)
LMTK3 (lemur tail kinase 3)	Vehicle	OCI-P5x (serous)	1	88.6
LMTK3 (lemur tail kinase 3)	Vehicle	OCI-P5x (serous)	2	65.7 (active)
LMTK3 (lemur tail kinase 3)	Vehicle	OCI-P5x (serous)	3	79.3 (active)

3 entries already listed, arranged by “viability, normalised (%)”, ascending.
Gene	rucaparib or vehicle	cell line	technical replicate	viability, normalised (%)
CAMK1G (calcium/calmodulin dependent protein kinase IG)	Rucaparib	OCI-C5x (clear cell)	3	45.8 (active)
CAMK1G (calcium/calmodulin dependent protein kinase IG)	Rucaparib	OCI-C5x (clear cell)	3	64 (active)
CAMK1G (calcium/calmodulin dependent protein kinase IG)	Rucaparib	OCI-C5x (clear cell)	2	83.1
